From patent publication US20180016620A1 (KITE PHARMA, published 2018)
No constants are given. Whether binding was seen depends on the method and setting. Some binding calls cover weakened binding; strength is not graded here. No end group written: not given here.

How the values were obtained:
[1] = biological target: T1, 8 mer subsequence GKPGSGEG; assay: epitope mapping ELISA, summary table of FIG. 7
T1 sequence (peptide): GKPGSGEG

subsequence KPGSG = biological target: T2, subsequence KPGSG; assay: epitope mapping ELISA, summary table of FIG. 7
T2 sequence (peptide): KPGSG

[2] = biological target: T1, 8 mer subsequence GKPGSGEG; assay: epitope mapping ELISA with truncated biotinylated peptides
[3] = biological target: T3, 10 mer subsequence …; assay: epitope mapping ELISA, summary table of FIG. 7
T3 sequence (peptide): GSGKPGSGEG

subsequence SGKPGSGE = biological target: T4, subsequence SGKPGSGE; assay: epitope mapping ELISA, summary table of FIG. 7
T4 sequence (peptide): SGKPGSGE

[4] = biological target: T3, 10 mer subsequence …; assay: epitope mapping ELISA with truncated biotinylated peptides

Measured: binding

B1: Clone 16 anti-linker antibody (antibody, V domains shown)
VH: QSLEESGGRLVTPGTPLTLTCTVSGSDISSYHMGWVRQAPGKGLEYIGIIVSSGSAYYATWAKGRFTISRTSTTVDLKITSPTTEDSATYFCARNQYSGYGFSFWGPGTLVTVSS
VL: AVVLTQTPSPVSTAVGGTVTINCQSSHSVYYGDWLAWYQQKPGQPPKLLIYRASNLASGVPSRFKGSGSGTQFTLTISGVQCDDAATYYCLGGYDDDGETAFGGGTEVVVKD
notes: Rabbit monoclonal from a hybridoma; also called Clone 16-6; 16-6
binds: [1] | subsequence KPGSG | [2]

B2: Clone 8 anti-linker antibody (antibody, V domains shown)
VH: QSVEESGGRLVTPGTPLTLTCTASGFTISNLAIIWVRQAPGKGLEYIGDIDGRGDIYCATWAKGRFTISKTSTTLDLRFTSPTTEDTATYFCAVDGDGSGWGDFNFWGPGTLVTVSS
VL: AYDMTQTPASVEVAVGGTVSIKCQASQSISTALAWYQQKPGQPPKLLIYRASTLASGVSSRFKGSGSGTQFTLTISGVECDDAATYYCQQGWSTVNVDNVFGGGTEVVVRD
notes: Rabbit monoclonal from a hybridoma; also called Clone 8-4; 8-4
binds: [3] | subsequence SGKPGSGE | [4]
